This is one part of the list.

The experiment concerns the target T1, OsSMF1 (Oryza sativa, UniProt Q6ZLB0 1-436).
T1 sequence: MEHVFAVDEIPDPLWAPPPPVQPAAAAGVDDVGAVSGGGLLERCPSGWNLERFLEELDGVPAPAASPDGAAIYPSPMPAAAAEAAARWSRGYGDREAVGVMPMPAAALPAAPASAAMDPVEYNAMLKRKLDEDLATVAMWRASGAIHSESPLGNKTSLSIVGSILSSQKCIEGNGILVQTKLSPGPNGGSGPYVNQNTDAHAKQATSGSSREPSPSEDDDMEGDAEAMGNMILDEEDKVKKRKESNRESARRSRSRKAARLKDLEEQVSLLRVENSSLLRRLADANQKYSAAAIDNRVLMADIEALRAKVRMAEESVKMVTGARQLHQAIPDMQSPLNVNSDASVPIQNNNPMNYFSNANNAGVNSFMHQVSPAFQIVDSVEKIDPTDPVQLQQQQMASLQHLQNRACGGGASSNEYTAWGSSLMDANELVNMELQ
The experiment is described as follows: protein-binding microarray (RPBM); PBS, 2% BSA, 51.3 ng/ul salmon testes DNA, 50 uM zinc acetate, 200 nM TF, 25 C, 1 h; high values mean tight binding. To be noted: protein: recombinant; tags: N-terminal polyhistidine and DsRed monomer fusion (pET32a); chain copies: 2; label: CyDye5-dUTP incorporated in the synthesized complementary strand; 3' TTTTT single-stranded linker to array surface; dsDNA, one strand shown. In a few lines: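 Binding signal is reported as fluorescence intensity per feature (arbitrary units) from an Axon 4000B scanner. Incubation used 200 nM of each Ni–NTA-purified, N-terminally polyhistidine- and DsRed-fused transcription factor from E. coli BL21-CodonPlus on a double-stranded custom Agilent array for 1 h at 25 °C, with 50 µM zinc acetate in the buffer, followed by washing.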
With “AATCTGCATGTCTGGTAGGTCGTCACCGTCATCAGAAATCCGGAGTCACCTAGTGCAG”, the binding signal is 5690 fluorescence intensity (a.u.).

With “ACCACATTCCACGTCACTACCACTCCACTCCACTCCACCACGGAGTCACCTAGTGCAG”, the binding signal is 32300 fluorescence intensity (a.u.). The value for “TTAATTAATCGATGAGAATCAATTTCATAATCATGGAGGTCGGAGTCACCTAGTGCAG” was 3530 fluorescence intensity (a.u.).

For the sequence “ATTCCGATTTGATTGCAGAACTGATGTCAGATTCCGAATCCGGAGTCACCTAGTGCAG”, the binding signal was 5520 fluorescence intensity (a.u.). The value for “ATCTGTTACTTGCTCGAACCTTCGTGTACCAAGACTTGAGCGGAGTCACCTAGTGCAG” was 35500 fluorescence intensity (a.u.); that for “GTGATCGCTGGTTTATCTAGCTGTGACTAGTCACGTCCATCGGAGTCACCTAGTGCAG” was 5550 fluorescence intensity (a.u.); that for “ATGTTTCAGACACGATAGCAATATGTTTCAACACATGTTTCGGAGTCACCTAGTGCAG” was 4500 fluorescence intensity (a.u.). The value for “TACTCATGGATGCCACCGTGTCTGCACGAATTTCCCTACCCGGAGTCACCTAGTGCAG” was 4020 fluorescence intensity (a.u.); that for “CCTCCTTTTCTTCTCCACGTATACAATCAGTCTAGTTGGACGGAGTCACCTAGTGCAG” was 5040 fluorescence intensity (a.u.). Take “TACACATGTTGCCGATCTCCCAAAGGAAATAGGGAATCTTCGGAGTCACCTAGTGCAG”: the binding signal is 3450 fluorescence intensity (a.u.).

As for “TGGCAATTAATATCCTAAGTTGATCACTTAATTAAGCCATCGGAGTCACCTAGTGCAG”, the binding signal is 7270 fluorescence intensity (a.u.).

“GGTCCGTTCACAGGCTGGTCGGTGGCGTGGACGGCAGGAGCGGAGTCACCTAGTGCAG”: the binding signal was 3930 fluorescence intensity (a.u.).

For the sequence “AATCAAACGTATGAATGACTAGCTACGATTTTATACACTTCGGAGTCACCTAGTGCAG”, the binding signal was 5060 fluorescence intensity (a.u.). In the case of “AATTACCACGTAAGCGTCACGTCAACAACACGTTAGACAACGGAGTCACCTAGTGCAG”, the binding signal is 8510 fluorescence intensity (a.u.).

With “TATTTTGACTTGGATGTTTTGCTTGTGACGCTAGCATTGGCGGAGTCACCTAGTGCAG”, the binding signal was 4890 fluorescence intensity (a.u.). With “TACTACTTATCCATGCGCTGGACTTTGTCAAAATACGATGCGGAGTCACCTAGTGCAG”, the binding signal was 3330 fluorescence intensity (a.u.). For “ATTTTGGTGGGATGTGACGCATCCTATTTGTACTCCCACCCGGAGTCACCTAGTGCAG”, the binding signal is 5420 fluorescence intensity (a.u.). As for “AAATAGTGAAATGCGAGATGATACCGCCTATTTGCCACTCCGGAGTCACCTAGTGCAG”, the binding signal was 21400 fluorescence intensity (a.u.).

As to “TACTCGTTTTCTGCCTGATCATGCGATGGAGCCATCCTTACGGAGTCACCTAGTGCAG”, the binding signal was 21800 fluorescence intensity (a.u.).

With “GATTACTGCATGCTAATCAGGAGAACACGTGTCACAGTGCCGGAGTCACCTAGTGCAG”, the binding signal is 15900 fluorescence intensity (a.u.). As to “TGGTTCGCTCGGTGGGTGGTGGTGGTTCTGTGAGCCCGCGCGGAGTCACCTAGTGCAG”, the binding signal was 3510 fluorescence intensity (a.u.). “TTGACCCTGATTTTATTTGACGCGGCTACTGAGTCAGCGTCGGAGTCACCTAGTGCAG”: the binding signal is 15200 fluorescence intensity (a.u.).

On to “TCGCGACCTCCACCGCCTGCGTCACACGCCACACCACATCCGGAGTCACCTAGTGCAG”, for which the binding signal is 6840 fluorescence intensity (a.u.).

(Values after publication PMC7819943, “Rice protein-binding microarrays: a tool to detect cis-acting elements near promoter regions in rice”.)
